The source of these data is publication PMC9788671.

The chains behind the UniProt entries cited, without tags or fusion partners.
UniProt Q9NZV8: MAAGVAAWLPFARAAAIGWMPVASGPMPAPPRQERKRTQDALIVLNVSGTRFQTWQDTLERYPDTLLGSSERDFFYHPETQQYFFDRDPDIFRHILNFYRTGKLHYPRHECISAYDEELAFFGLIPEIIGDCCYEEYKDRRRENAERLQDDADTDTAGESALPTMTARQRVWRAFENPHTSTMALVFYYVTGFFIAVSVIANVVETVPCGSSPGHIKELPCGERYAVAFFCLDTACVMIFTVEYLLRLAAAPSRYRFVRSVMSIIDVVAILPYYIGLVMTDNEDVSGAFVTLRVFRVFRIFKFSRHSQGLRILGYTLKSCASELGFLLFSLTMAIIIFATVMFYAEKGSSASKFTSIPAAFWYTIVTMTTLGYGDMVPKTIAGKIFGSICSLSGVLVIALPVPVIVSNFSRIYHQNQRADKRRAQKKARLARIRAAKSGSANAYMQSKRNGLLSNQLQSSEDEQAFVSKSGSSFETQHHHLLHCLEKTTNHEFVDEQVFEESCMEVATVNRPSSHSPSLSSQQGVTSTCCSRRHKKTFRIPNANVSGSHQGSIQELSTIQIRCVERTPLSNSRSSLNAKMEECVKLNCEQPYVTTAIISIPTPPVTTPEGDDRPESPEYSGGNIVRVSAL

These are yes or no findings as the source states them, for the method shown. Binding seen in cells or lysates may run through a third protein. Here binding means that the protein was enriched with, or labelled near, the bait; the list need not be complete.

The chains are these.
B1: Canx (protein, UniProt P35565 21-591)
chain: HDGHDDDMIDIEDDLDDVIEEVEDSKSKSDTSTPPSPKVTYKAPVPTGEVYFADSFDRGSLSGWILSKAKKDDTDDEIAKYDGKWEVDEMKETKLPGDKGLVLMSRAKHHAISAKLNKPFLFDTKPLIVQYEVNFQNGIECGGAYVKLLSKTSELNLDQFHDKTPYTIMFGPDKCGEDYKLHFIFRHKNPKTGVYEEKHAKRPDADLKTYFTDKKTHLYTLILNPDNSFEILVDQSVVNSGNLLNDMTPPVNPSREIEDPEDRKPEDWDERPKIADPDAVKPDDWDEDAPSKIPDEEATKPEGWLDDEPEYIPDPDAEKPEDWDEDMDGEWEAPQIANPKCESAPGCGVWQRPMIDNPNYKGKWKPPMIDNPNYQGIWKPRKIPNPDFFEDLEPFRMTPFSAIGLELWSMTSDIFFDNFIISGDRRVVDDWANDGWGLKKAADGAAEPGVVGQMLEAAEERPWLWVVYILTVALPVFLVILFCCSGKKQSNAMEYKKTDAPQPDVKDEEGKEEEKNKGDEEEEEEKLEEKQKSDAEEDGGTGSQDEEDSKPKAEEDEILNRSPRNRKPRRE
B2: Ncdn (protein, UniProt O35095 1-729)
chain: MSCCDLAAAGQLGKAGIMASDCEPALNQAESRNPTLERYLGALREAKNDSEQFAALLLVTKAVKAGDIDAKTRRRIFDAVGFTFPNRLLTTKEAPDGCPDHVLRALGVALLACFCSDPELASHPQVLNKIPILCTFLTARGDPDDAARRSMIDDTYQCLTAVAGTPRGPRHLIAGGTVSALCQAYLGHGYGFDQALALLVGLLAAAETQCWKEAEPDLLAVLRGLSEDFQRAEDASKFELCQLLPLFLPPTTVPPECHRDLQAGLARILGSKLSSWQRNPALKLAARLAHACGSDWIPVGSSGSKFLALLVNLACVEVRLALEETGTEVKEDVVTACYALMELGIQECTRCEQSLLKEPQKVQLVSIMKEAIGAVIHYLLRVGPEKQKEPFVFASVRILGAWLAEETSSLRKEVCQLLPFLVRYAKTLYEEAEEASDISQQVANLAISPTTPGPAWPGDALRLLLPGWCHLTVEDGPREILIKEGAPSLLCKYFLQQWELTSPGHDTSVLPDSVEIGLQTCCHIFLNLVVTAPGLIKRDACFTSLMNTLMTSLPSLVQQQGRLLLAANVATLGLLMARLLSTSPALQGTPASRGFFAAAILFLSQSHVARATPGSDQAVLALSPDYEGIWADLQELWFLGMQAFTGCVPLLPWLAPAALRSRWPQELLQLLGSVSPNSVKPEMVAAYQGVLVELARANRLCREAMRLQAGEETASHYRMAALEQCLSEP
B3: Tomm70a (protein, UniProt Q75Q39 1-610)
chain: MAASKPVEAAMAAAAAPASGNGVGSSGGTAAPGSGAGTLPRWHVALAIGAPLLLGAGAMYLWSRRRRRREAGGRGDASGLKRNSERKTPEGRASPALGSGPDGSGDSLEMSSLDRAQAAKNKGNKYFKAGKYEQAIQCYTEAISLCPTEKNADLSTFYQNRAAAFEQLQKWKEVAQDCTKAVELNPKYVKALFRRAKAHEKLDNKKECLEDVTAVCILEGFQNEQSMLLADKVLKLLGKENAKEKYKNREPLMPSPQFIKSYFSSFTDDIISQPMLKGEKSDEDKDKEGEALEVKENSGYLKAKQYMEEENYDKIISECSKEIDAQGKYMAEALLLRATFYLLIGSANAAKPDLDKVISLKEANVKLRANALIKRGTMCMQQQQPMLSTQDFNMAAEIDPMNSDVYHHRGQLKILLDLVEEAVADFDACIRLRPKFALAQAQKCFALYRQAYTANNSSQVQAAMKGFEEVIKKFPRCAEGYALYAQALTDQQQFGKADEMYDKCIDLEPDNATTYVHKGLLQLQWKQDLDKGLELISKAIEIDNKCDFAYETMGTIEVQRGNMEKAIDMFNKAINLAKSEMEMAHLYSLCDAAHAQTEVAKKYGLKPPTL
B4: Aldoa (protein, UniProt P05065 1-364)
chain: MPHPYPALTPEQKKELADIAHRIVAPGKGILAADESTGSIAKRLQSIGTENTEENRRFYRQLLLTADDRVNPCIGGVILFHETLYQKADDGRPFPQVIKSKGGVVGIKVDKGVVPLAGTNGETTTQGLDGLSERCAQYKKDGADFAKWRCVLKIGEHTPSSLAIMENANVLARYASICQQNGIVPIVEPEILPDGDHDLKRCQYVTEKVLAAVYKALSDHHVYLEGTLLKPNMVTPGHACTQKFSNEEIAMATVTALRRTVPPAVPGVTFLSGGQSEEEASINLNAINKCPLLKPWALTFSYGRALQASALKAWGGKKENLKAAQEEYIKRALANSLACQGKYTPSGQSGAAASESLFISNHAY
B5: Mccc2 (protein, UniProt Q5XIT9 23-563)
chain: YHGDAVARLGTQPDSGSSTYQENYEQMKALVNQLHERAQYVRLGGSEKARARHTSRGKLLPRDRIDNLIDPGSPFLEFSQFAGYKLYGEEEVPAGGIITGIGRVSGVECMIVANDATVKGGTYYPVTVKKHVRAQEIALQNRLPCIYLVDSGGANLPRQADTFPDRDHFGRIFYNQAIMSSKNITQIAVVMGSCTAGGAYVPAMADENIIVQRQGTIFLAGPPLVKAATGEEVSAEDLGGADLHCRRSGVTDHYALDDHHALHLTRKVVRSLNYQKKLDVTVEPSEEPLFPADELYGIVGANLKRSFDVREVIARIVDGSRFNEFKALYGDTLVTGFARIFGYPVGIIGNNGVLFSESAKKGAHFVQLCCQRNIPLLFLQNITGFMVGKDYEAEGIAKDGAKMVAAVSCAKVPKITVIIGGSYGAGNYGMCGRAYSPRFLYMWPNARISVMGGEQAATVLATVARDQRAREGKQFSSAEEAALKEPIIKRFEEEGNPYYSSARLWDDGIIDPVDTRLVLGLSISAALNAPIQRTDFGIFRM
B6: Bag5 (protein, UniProt Q5QJC9 1-447)
chain: MDMGNQHPSISRLQEIQREVKSIEQQVVGFSGLSDDKNYKRLERILTKQLFEIDSVDTEGKGDIQQARKRAAQDTERLLKELEQNANHPHRIEIKNIFQEAQALVKEKTVPFYSGSNCVTSEFEEAIQDIILRLTHVKTGGKISLRKARYHTLTKICAVQEIIEDCVRKQPSLPLSEDVHPSVAKINSVMCEVNKARGTLIALLMGVDSSETCRHLSCVLSGLMADLDALDVCGRTEIRNYRREVVEDINKLLKYLDLEEEADNTHAFDLGQNHSIIKIENVLKRMREMKNELLQAQSPPELYLRSKTELQGLIGQLDEVSLEKNPCIREARRRAVIEVQTLITYLDLKEALEKRKLFPCEETPPHKAVWNVLGNLSEIQGEVLSFGGNRTDKNYIRLEELLTKQLLTLDAVDPLGEEKCKAARKQAVKLAQNILSYLDMKSDEWEY
B7: Dclk2 (protein, UniProt Q5MPA9 1-767)
chain: MASTRSIELEHFEERDKRPRPGSRRGAPSSSGGSSISGPKGNGLIPSPAHSAHCSFYRTRTLQALSSEKKAKKARFYRNGDRYFKGLVFAISSDRFRSFDALLIELTRSLSDNVNLPQGVRTIYTVDGSRKVTSLDELLEGESYVCASNEPFRKVDYTKNVNPNWSVNIKGGTTRTLAVASAKSEVKESKDFIKPKLVTVIRSGVKPRKAVRILLNKKTAHSFEQVLTDITEAIKLDSGVVKRLCTLDGKQVTCLQDFFGDDDVFIACGPEKYRYAQDDFVLDHSECRVLKSSYSRASAAKYSGSRSPGLSRRSKSPASVKRAGHSSAYSTAKSPVNGTPSSQLSTPKSTKSSSSSPTSPGSFRGLKQISAQGRSSSNVNGGPELDRCMSPEGVNGNRCSESFTLLEKYRIGKVIGDGNFAVVKECMDRSTGKEFALKIIDKAKCCGKEHLIENEVSILRRVKHPNIIMLVEEMETTTELFLVMELVKGGDLFDAITSSTKYTERDGSAMVYNLASALRYLHGLSIVHRDIKPENLLVCEYPDGTKSLKLGDFGLATVVEGPLYTVCGTPTYVAPEIIAETGYGLKVDVWAAGVITYILLCGFPPFRSENNLQEDLFDQILAGKLEFPAPYWDNITDSAKELISQMLQVNVEARCTAGEILSHPWVSDDASQENNMQAEVTGKLKQHFNNALPKQNSTTTGVSVIMNTALDKEGQVFCSKHCRDSSKSSREQTSAREAPPPPESPRPPGPPATSGCDPAGTWRRHRD

This assay has as its target TAP-Kv4.2 (human) (UniProt Q9NZV8). As to the kind of experiment: affinity purification with mass spectrometry; TAP-Kv4.2 expressed by lentivirus in rat hippocampal neurons, harvested at DIV14; weak lysis buffer of the kit (0.1% NP-40); streptavidin resin, then calmodulin resin; gel cut into high and low molecular weight fragments; no MS of the control sample.
Turning to B1, the binding result is “binds”.
For B2 the value was “binds”.
B3: the binding entry is on record as “binds”.
For the molecule B4, the binding result is reported as “binds”.
For B5 the value was “binds”.
Next, B6: “binds”.
As for B7, the binding result is listed as “binds”.
